Measurements reported in PubChem BioAssay AID540303 (National Center for Advancing Translational Sciences (NCATS), 2011).
The whole screen tested about 330,000 compounds, of which about 1,000 (0.3%) were called active. Inconclusive means that the source gave no clear call. Such entries were picked first, then a sample of the others. Calls come from the whole dose curve; as a rule, active = well fitted inhibition curve with a large enough effect; inconclusive = small, poorly fitted or top-dose-only effect; inactive = no such curve, though single readings can be large or run the other way; tested in mouse RAW 264.7 cells. Potencies beside an inconclusive call are fits to weak or partial responses and may not hold up.

Assay: qHTS for Inhibitors of Cell Surface uPA Generation; note: nearly all actives have a fitted effect of over 55% in size
Details: cell surface uPA generation assay; series mostly up to 38.3 µM
Method in brief: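 Murine RAW 264.7 cells are treated for 24 h with compound up to 38.3 uM final. Cell ATP, measured by ATP-Lite, remains high if blocking the uPA cascade prevents LF from reaching the cytoplasm.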
Potency is the fitted concentration of half-maximal effect.

| Compound | Potency |
| --- | --- |
| Cc1ccc(C)c(N2CCN(CCCNC(=O)Cn3cccc3C(=O)c3ccccc3)CC2)c1 | inconclusive: 11.2 µM [inhibitor, single point] |
| Cc1ccc(S(=O)(=O)N2CCOCC2)cc1C(=O)NCCN1C(=O)S/C(=C\c2ccccc2Cl)C1=O | inactive |
| C(=C\c1ccc2ccccc2n1)/c1ccccc1 | active: 5.62 µM |
| COc1ccc(-c2cc3c(=O)n(CC(=O)NCCCc4ccccc4)ncn3n2)cc1 | inconclusive: 3.55 µM [inhibitor, partial curve, poor fit] |
| C=CCN1C(=O)N/C(=C/c2ccc(C)o2)C1=O | inconclusive: 28.2 µM [inhibitor, single point] |
| O=C(Nc1ccc2c(c1)OCCO2)c1cc(F)c(F)cc1Cl | inconclusive: 3.16 µM [inhibitor, full curve, poor fit] |
| N#CCC(=O)Nc1sc2c(c1C(N)=O)CCCC2 | inactive |
| CCCS(=O)(=O)Nc1cccc(-c2ccc3nnc(C)n3n2)c1 | inactive |
| CC(C)(C)C1CCc2sc(-c3nnc(CCl)o3)cc2C1 (stereo not drawn) | inconclusive: 12.6 µM [inhibitor, single point] |
| Cc1cccc(CCN2C(Nc3ccccc3)=NC[C@@H]2CC(C)C)c1 | inconclusive: 7.08 µM [inhibitor, single point] |
| Cc1ccccc1OCCCN1C(=O)C(=O)c2cccc(C)c21 | inconclusive: 14.1 µM [inhibitor, partial curve, poor fit] |
| c1ccc(C[C@H]2CNCCN2CCC23CC4CC(CC(C4)C2)C3)cc1 | inconclusive: 5.01 µM [inhibitor, single point] |
| O=C(O)c1ccc(NC(=O)c2cccc(C(=O)Nc3ccc(C(=O)O)cc3)n2)cc1 | inconclusive: 5.01 µM [inhibitor, partial curve, poor fit] |
| C=CCn1c(SCc2ccc(F)cc2)nc2c1c(=O)[nH]c(=O)n2C | inconclusive: 10 µM [inhibitor, partial curve] |
| O=C(Cc1csc(-c2ccccc2)n1)NCC(=O)Nc1ccc(F)c(F)c1F | inactive |
| CCCCCc1cc(=O)oc2c(C(CCN3CCCCC3)c3ccc4c(c3)OCO4)c(OC)cc(OC)c12 (stereo not drawn) | inconclusive: 28.2 µM [inhibitor, single point] |
| COc1ccccc1N(CC(=O)Nc1ccc(Br)cc1F)S(=O)(=O)c1cccs1 | inactive |
| O=C(NCCc1ccccc1)C(=O)NCC1OCCCN1S(=O)(=O)c1cccs1 (stereo not drawn) | inactive |
| CCOc1ccc(C(=O)Nc2ccccc2N2CCN(C(=O)c3ccccc3)CC2)cc1[N+](=O)[O-] | inactive |
| O=C(C1=C[C@@H](c2ccc(C(F)(F)F)cc2)C[C@@H](OCCCCO)O1)N1CCN(Cc2ccccc2)CC1 | inconclusive: 11.2 µM [inhibitor, partial curve, poor fit] |
| COC(=O)c1cccc(/C=N/NC(N)=S)c1O | inconclusive: 7.08 µM [inhibitor, partial curve, poor fit] |
| C/C(=C\C(=S)Nc1ccccc1)Nc1ccc2ccccc2c1 | inactive |

Reformatted with each value named: two of the compounds above.
N#CCC(=O)Nc1sc2c(c1C(N)=O)CCCC2
  Potency: inactive
O=C(O)c1ccc(NC(=O)c2cccc(C(=O)Nc3ccc(C(=O)O)cc3)n2)cc1
  Potency: inconclusive: 5.01 µM [inhibitor, partial curve, poor fit]

The list continues:

| Compound | Potency |
| --- | --- |
| Cc1ccc(N/C=C/C(=O)c2cccs2)cc1 | inconclusive: 2.24 µM [inhibitor, partial curve, poor fit] |
| C/C(=N\NC(=O)c1nnn(-c2nonc2N)c1CSc1ccc(C)cc1)c1ccco1 | inactive |
| CCN1CCN(C(=O)Cn2cnc3sc(C)c(S(=O)(=O)N4CCN(c5ncccn5)CC4)c3c2=O)CC1 | inactive |
| Cc1cc[n+](C2=C([O-])c3ccccc3C(=O)/C2=N\S(=O)(=O)c2cccs2)cc1C | inactive |
| COc1cc(SC)ccc1C(=O)Nc1cc(C)c(OCC(=O)N2CCOCC2)c(C)c1 | inconclusive: 12.6 µM [inhibitor, single point] |
| COC(=O)N/N=C/c1c(C)nn(-c2cccc(Cl)c2)c1Cl | inconclusive: 12.6 µM [inhibitor, single point] |
| [O-][n+]1c(/C=C/c2ccccc2)ccc2ccccc21 | inconclusive: 11.2 µM [inhibitor, partial curve, poor fit] |
| C=CC(=O)Nc1ccc(CN2C(=O)N(c3c(Cl)c(OC)cc(OC)c3Cl)Cc3cnc(NCCCCN(CC)CC)nc32)cc1 | inconclusive: 12.6 µM [inhibitor, partial curve, poor fit] |
| N=c1c2c(ncn1CCCO)Oc1c(ccc3ccccc13)C2c1ccccc1 (stereo not drawn) | inconclusive: 12.6 µM [inhibitor, single point] |
| CSCCOC(=O)c1[nH]c2c(c1C)C(=O)CC(c1ccco1)C2 (stereo not drawn) | inconclusive: 1.26 µM [inhibitor, full curve, poor fit] |
| CCCCOc1cc(C(=O)NCCN(CC)CC)c2ccccc2n1 | inconclusive: 3.98 µM [inhibitor, partial curve, poor fit] |
| Cc1ccc(C(=O)CSc2cc(C)[nH]c(=O)n2)cc1 | inconclusive: 10 µM [inhibitor, partial curve, poor fit] |
| O=c1c2ccccc2oc2cc(NCCCN3CCOCC3)ccc12 | inconclusive: 7.94 µM [inhibitor, single point] |
| CC(=O)/C(=C/c1ccccc1)C(=O)Nc1ccccc1C | active: 2.82 µM |
| Cc1ccc(-c2nc(C=Nc3ccc(O)cc3)c(O)o2)cc1 | inconclusive: 1.58 µM [inhibitor, full curve, poor fit] |
| O=C(Nc1ccc(C(F)(F)F)cc1Cl)c1ccc(Cn2cc(Br)cn2)o1 | inactive |
| Cc1ccc(S(=O)(=O)n2nc(OC(=O)c3cccc(F)c3)cc2N)cc1 | inconclusive: 1.78 µM [inhibitor, full curve, poor fit] |
| Cc1ccc(CN2CCN(Cc3cccc4c3OCO4)CC2CCO)cc1 (stereo not drawn) | inactive |
| COc1cc(-c2nnc3sc(Cc4ccccc4)nn23)cc(OC)c1OC | inactive |
| COc1cccc(-c2ccc(NC(=O)C3CCCN(Cc4cnc(C)s4)C3)cc2)c1 (stereo not drawn) | inconclusive: 6.31 µM [inhibitor, partial curve, poor fit] |
| COc1ccc(-c2cc(=O)c3ccc(O)cc3o2)cc1 | inconclusive: 7.08 µM [inhibitor, partial curve] |
